Experimental data taken from PubChem BioAssay AID1259415 (National Center for Advancing Translational Sciences (NCATS), 2018).
Values joined by “and” are separate entries in the source; they are usually repeats but may differ in a detail not shown here. Equal values may be shown once. Hit rate of the full screen: of about 410,000 compounds, about 18,000 (4.4%) were called active. Inconclusive results, whose numbers are uncertain, are shown with a selection of clear calls. Rule as the data show it: active = activity change below about -60%; inconclusive = no clear call, values can overlap the other calls; inactive = above about -39%.

test: qHTS Assay for inhibitors of the human cytomegalovirus (HCMV); details: HFF cells, HCMV-luciferase reporter, 72 h; at 57.5 µM; hits give low values
From the text: NCGC Assay Overview: Infection with human cytomegalovirus (HCMV) continues to pose significant threats for pregnant women and immunocompromised hosts. HCMV causes serious morbidity and mortality in transplant recipients, and congenital HCMV is the leading infectious cause of mental retardation and deafness in children. In the 1990s, the annual costs associated with the disease burden of congenital CMV were estimated at around $2 billion. A HCMV vaccine is not available yet and HCMV therapies result in intolerable side effects and emergence of drug resistant viruses. […] Towards this goal we have developed and characterized a luciferase HCMV reporter that was initially used in 96 well plates and then optimized to 1536-well plates for utilization in screening of the MLSMR collection, the NGCG diversity collection and the NCGC Pharmaceutical Collection of approved and investigational drugs.
NCGC Assay Protocol Summary:
This is a cell-based assay for HCMV inhibition in HFFs cells. The screening used 2 compound doses and the HCMV-luciferase at MOI of 1 PFU/cell. Cells were treated and infected with HCMV. At 72 h post infection cell lysates were collected and luciferase activity was determined using the Glomax-Multi + Detection System (Promega, Madison, WI). Data were normalized to the controls for basal activity (buffer only) and known HCMV inhibitors Salinmoycin.
1536-well assay protocol for the assay:
(1) Add 3 ul CMV/HFF cell culture. 1000 cells/well in DMEM nirmal media.
(2) Incubate 16 hr at 37C.
(3) Add 23 nl control compound, 10uM of Salinomycin.
(4) Add 23 nl compounds in DMSO solution.
(5) Add 3 ul CMV suspension. Final 1 puf/ul, Virus stock 2000pfu/ul
(6) Incubate 72 hrs at 37C.
(7) Add 4 ul OneGlo Luc Reagent.
(8) Incubate 5 min at room temperature.
% is scaled to controls: 0 for no effect and ±100 for the full control effect.

Compound	activity change, negative = inhibition
CC1CN(C(=O)c2ccccc2OCc2ccc(Cl)cc2Cl)CC(C)O1 (configuration not stated)	inconclusive: -42.4%
O=C(CN1C(=O)C2CCCCC2C1=O)Nc1nccs1 (configuration not stated)	inconclusive: -46.3%
COc1ccc(C2=NS(=O)(=O)N(C)C(C(=O)Nc3cc(OC)c(OC)c(OC)c3)=C2)cc1	inconclusive: -59.6%
O=C(NCc1ccccc1)C1(c2cccc(F)c2)CCCC1	inconclusive: -54.8%
Cc1cnc(C(=O)OCC(=O)N=c2sccn2Cc2ccccc2Cl)cn1	inconclusive: -49%
CCc1ccccc1NCC(=O)Nc1ccccc1C(=O)OC	inconclusive: -53.1%
CCOC(=O)C1CCCN(c2nc3ccccc3nc2C(C#N)C(=O)OCC)C1 (configuration not stated)	inactive: 30.8%
COc1cccc(C(=O)C2CCCN(C(=O)CCc3scnc3C)C2)c1 (configuration not stated)	inactive: 5.2%
Cc1c(NC(=O)c2ccc(-c3ccc([N+](=O)[O-])cc3Cl)o2)c(=O)n(-c2ccccc2)n1C	inconclusive: -41.9%
O=C(Nc1c(-c2ccccc2)nc2ccc(Cl)cn12)c1cccs1	inconclusive: -42.2%
S=C(NC1CCCCC1)N(CCc1nc2ccccc2[nH]1)C1CCCC1	inconclusive: -40.4%
C=CCN=C1SC(C)(C)C(=O)N1S(=O)(=O)c1ccc(C)cc1	inactive: -1.03%
CC(Oc1ccccc1)C(=O)NC1C(=O)N2C1SC(C)(C)C2C(=O)O (configuration not stated)	inconclusive: -40.9%
Cn1c(-c2ccccc2)cc2onc(-c3ccccc3)c2c1=O	inconclusive: -50.3%
O=C(Nc1ccc(CN2CCOCC2)cc1)c1ccc(-c2cc(Cl)ccc2Cl)o1	inconclusive: -40.3%
Cc1cccc(N(CC(=O)Nc2ccc(Br)cc2)S(C)(=O)=O)c1C	inactive: 1.55%
O=C(c1cc(-c2ccc(Br)cc2)on1)N1CCCCCC1	inactive: 38.5%
COCCCn1c(C)cc(C(=O)COC(=O)C23CC4CC(CC(O)(C4)C2)C3)c1C	inconclusive: -53.2%
COC(=O)CN1C(=O)COc2ccc(S(=O)(=O)NCc3ccc(Cl)cc3)cc21	inconclusive: -46.3%
Cc1nc(CC(=O)Nc2cccc(C)c2C)cs1	inconclusive: -48.3%
CCn1c(SCC(=O)Nc2ccc3c(c2)oc2ccccc23)nnc1-c1ccc(N)cc1	inconclusive: -53.9%
CC1(C)Cc2cccc(Oc3ccc(S(=O)(=O)N4CCCCC4)cn3)c2O1	inactive: -25.1%

Among those listed so far, five contain four or more nitrogen atoms.
Compound	activity change, negative = inhibition
Cc1cnc(C(=O)OCC(=O)N=c2sccn2Cc2ccccc2Cl)cn1	inconclusive: -49%
CCOC(=O)C1CCCN(c2nc3ccccc3nc2C(C#N)C(=O)OCC)C1 (configuration not stated)	inactive: 30.8%
Cc1c(NC(=O)c2ccc(-c3ccc([N+](=O)[O-])cc3Cl)o2)c(=O)n(-c2ccccc2)n1C	inconclusive: -41.9%
S=C(NC1CCCCC1)N(CCc1nc2ccccc2[nH]1)C1CCCC1	inconclusive: -40.4%
CCn1c(SCC(=O)Nc2ccc3c(c2)oc2ccccc23)nnc1-c1ccc(N)cc1	inconclusive: -53.9%

The list goes on.

Compound	activity change, negative = inhibition
O=C(NCC(c1cccnc1)N1CCN(Cc2ccccc2)CC1)C(=O)Nc1ccc(Cl)cc1 (configuration not stated)	inconclusive: -49.5%
S=c1[nH]nc(-c2ccccc2)n1/N=C/c1ccc(-c2ccccc2Cl)o1	inconclusive: -56.5%
CCCNC(=O)C1(C)CCN(C(=O)c2ccc(F)c(Cl)c2)C1 (configuration not stated)	inactive: -7.22%
Cc1ccc(CSc2nc3ccc(NC(=O)C(C)C)cc3s2)cc1	inactive: -13.1%
OCCNC(=S)NCCc1ccccc1	inconclusive: -40.6%
COc1ccc2c(c1)-c1nc(NC(=O)c3cc(Cl)ccc3OC)sc1CC2	inconclusive: -43%
CCCCCn1cnc2c(=S)nc(N)[nH]c21	inconclusive: -56.4%
CCc1nn(CC(=O)N2CCC(C)CC2)c(=O)c2cccn12	inconclusive: -41.6%
S=C(NCCc1ccccc1)Nc1ccc(Br)cc1	active: -74.8%
O=C(CCCn1c(=S)[nH]c2cc3c(cc2c1=O)OCO3)N1CCN(c2ccc(Cl)cc2)CC1	active: -85.6%
COc1cccc(CC(NC(C)=O)C(=O)NC2CCN(c3c(Cc4ccccc4)c(C)nc4ncnn34)CC2)c1 (configuration not stated)	inconclusive: -42.9%
O=C(COC(=O)/C=C/c1cccc(C(F)(F)F)c1)NC(=O)NCc1ccco1	inactive: 0%
NC(=O)c1cccc(-c2ccnc3c2CC(C(=O)NCc2ccccc2)O3)c1 (configuration not stated)	inconclusive: -53.9%
COc1ccc(CN2CCCC(C(=O)N3CCc4ccccc4C3)C2)cc1OC (configuration not stated)	inconclusive: -44.3%
COC(=O)/C(=C\Nc1ccc(Cl)cc1Cl)NC(=O)c1ccc(OC)cc1	inconclusive: -45.9%
O=c1c2ccccc2nc(/C=C/c2cccc([N+](=O)[O-])c2)n1CCO	inconclusive: -51.3%
Cc1ccc(NS(=O)(=O)c2ccc(NC(=O)N3CCCC3)cc2)cc1C	inactive: 15.1%
CCOC(=O)C1CCN(C(=O)c2cc3cc(C)ccc3[nH]2)CC1	inactive: 8.16%
Cc1nc(NCc2ccccn2)c2ccccc2n1	active: -84.2%
CC(Cc1ccccc1)N(C)C(=O)CN1C(=O)c2ccccc2C1=O (configuration not stated)	inconclusive: -41.4%
CCCCN(CC)CCNC(=O)c1cc2c(-c3ccc(Cl)cc3)nn(C)c2s1	active: -96.6% and active: -100%
Cc1[nH]c(N)nc(=S)c1CCCNc1ccccc1	active: -99.8%

Compound	activity change, negative = inhibition
COc1cc(C(=O)NCCCC2CCCC2)ccc1OC1CCN(C(C)=O)CC1	inconclusive: -45.1%
O=C(CSc1nc(-c2ccccc2)nc2c1CCCC2)c1ccc(F)cc1	inactive: 8.85%
COc1cccc(CNC(=O)c2ccc(Cn3c(SCc4ccccc4)nc4cccnc43)cc2)c1	inactive: 4.08%
COc1ccccc1NC(=O)Cn1nnc(-c2ccccc2NS(=O)(=O)c2ccccc2)n1	active: -66.9%
CCOc1ccc(-c2cc(C(=O)NN3CCN(C)CC3)c3cc(Cl)ccc3n2)cc1	inconclusive: -41%
Cc1cccc(NC(=O)C[n+]2ccc(N(C)C)cc2)c1	inconclusive: -53.2%
O=C(Nc1ccc(Cl)cc1)N(Cc1cccnc1)Cc1ccco1	inconclusive: -40.6%
COc1ccc(NS(=O)(=O)c2cccc(C(=O)N3CCN(C/C=C/c4ccccc4)CC3)c2)cc1	inactive: -6.68%
CCc1ccc(NC(=O)c2ccc(F)c(S(=O)(=O)N3CCC(C)CC3)c2)cc1	inactive: -28.8%
COc1cc2c(c3oc(-c4ccccc4)cc(=O)c13)C=CC(C)(C)O2	inconclusive: -44.8%
O=C(CCc1nnc2ccc(N3CCC4(CC3)OCCO4)nn12)NCc1ccc(F)cc1	inactive: -8.11%
O=C(O)CSc1nnc(-c2cccc(S(=O)(=O)N3CCCCC3)c2)o1	inactive: 6.54%
CC(C)c1nc(C(=O)N2CCCC(N3CCN(c4cccc(Cl)c4)CC3)C2)cs1 (configuration not stated)	inactive: -2.94%
c1ccc(NCC2OCc3ccccc3CO2)cc1	inconclusive: -43.8%
Nc1ccccc1Nc1ccc([N+](=O)[O-])cc1[N+](=O)[O-]	inconclusive: -48.8%
COc1ccc(-n2c(/C=C/c3ccc(O)c(O)c3)nc3ccccc3c2=O)cc1	inconclusive: -48.4%
COc1ccccc1NC(=O)Nc1nnc(Cc2ccccc2F)s1	inconclusive: -58.9%
COc1ccccc1/C=N/NC(=O)CSc1ccc2ccccc2n1	inconclusive: -55.4%
NS(=O)(=O)c1cccc(NC(=O)CN2CCC(Cc3ccccc3)CC2)c1	inconclusive: -41.2%
O=C(N/N=C/C1CC=CCC1)c1ccc(Cl)cc1O (configuration not stated)	inactive: 2.03%
CCN1C(=O)c2cccc3c(S(=O)(=O)N(C(=O)c4ccncc4)c4ccc(OC)cc4)ccc1c23	inactive: 10.6%
COc1cccc(N/C(N)=N/c2nc(C(F)(F)F)cc(C(F)(F)F)n2)c1	inconclusive: -52.1%

Compound	activity change, negative = inhibition
COc1ccccc1N(C(C)=O)C1=C(Cl)C(=O)c2ccccc2C1=O	inconclusive: -51.4%
O=C(NC(=C(Cl)Cl)S(=O)(=O)c1ccc(Cl)cc1)c1ccccc1	inconclusive: -51.6%
O=C(O)COc1ccc(-c2nccc(-c3ccccn3)n2)cc1	active: -71%
CCc1nc(CN2CCCC(C(=O)c3ccc4c5c(cccc35)CC4)C2)c(C)[nH]1 (configuration not stated)	inconclusive: -47.6%
CN(C)CCSc1nc2cc(S(=O)(=O)N3CCCCC3)ccc2o1	inconclusive: -55.8%
Cc1nc(-c2ccncc2)sc1C(=O)Nc1ccc(Cl)cc1	inconclusive: -51.6%
COc1cc(/C=C(\C#N)c2nc3ccc(C)cc3[nH]2)cc([N+](=O)[O-])c1O	inactive: 39%
CCOc1cc(Br)cc(/C=C2\SC(=Nc3ccccc3)NC2=O)c1O	active: -84.1%
CSc1nc(-c2ccc(Cl)cc2)c(C#N)c(=O)[nH]1	active: -75.5%
CC(Nc1nc(=S)nc(Nc2ccc(F)cc2)[nH]1)c1ccccc1 (configuration not stated)	inconclusive: -42.5%
O=C(Nc1ccc(Cl)cn1)c1ccc(Br)c(S(=O)(=O)N2CCCCC2)c1	inconclusive: -52%
O=S(=O)(NCCSc1nnnn1-c1ccccc1)c1ccc(F)cc1	active: -60.5%
COc1ccc(CNC(=O)CSc2nc3ccc(OC)cc3[nH]2)cc1	inactive: 2.76%
Fc1ccccc1N1CCN(c2ncnc3[nH]ncc23)CC1	inconclusive: -59.6%
CCOc1ccc(S(=O)(=O)N2CCCCC2)cc1NC(=O)Cc1ccc(OC)cc1	inconclusive: -49.7%
COC(=O)c1ccc(CC2(C)C(=O)Nc3ccc(-c4cccc(C(F)(F)F)c4)cc32)o1 (configuration not stated)	inconclusive: -51.2%
Cc1ccc(-c2nnc(Nc3cccc(Cl)c3)c3ccccc23)cc1S(=O)(=O)NCC1CCCO1 (configuration not stated)	active: -65.1%
O=C(NCc1ccncc1)C(=O)Nc1nc2ccccc2s1	inactive: 27.4%
CSCCC(NS(=O)(=O)c1ccc2c(c1)oc(=O)n2C)C(=O)NCCc1ccc(C)cc1 (configuration not stated)	inactive: 0%
O=C1N[C@@H](Cc2ccccc2)C(=O)N2[C@H]1C[C@]1(Br)c3ccccc3N(S(=O)(=O)c3ccc(F)cc3)[C@H]21	inactive: -0.506%
Nc1nc(-c2ccccc2)cc(-c2ccccc2O)n1	active: -96.2%
